The values that follow come from article PMC4673185.

Chains of the proteins cited; added tags and fusions are not shown.
UniProt O00429: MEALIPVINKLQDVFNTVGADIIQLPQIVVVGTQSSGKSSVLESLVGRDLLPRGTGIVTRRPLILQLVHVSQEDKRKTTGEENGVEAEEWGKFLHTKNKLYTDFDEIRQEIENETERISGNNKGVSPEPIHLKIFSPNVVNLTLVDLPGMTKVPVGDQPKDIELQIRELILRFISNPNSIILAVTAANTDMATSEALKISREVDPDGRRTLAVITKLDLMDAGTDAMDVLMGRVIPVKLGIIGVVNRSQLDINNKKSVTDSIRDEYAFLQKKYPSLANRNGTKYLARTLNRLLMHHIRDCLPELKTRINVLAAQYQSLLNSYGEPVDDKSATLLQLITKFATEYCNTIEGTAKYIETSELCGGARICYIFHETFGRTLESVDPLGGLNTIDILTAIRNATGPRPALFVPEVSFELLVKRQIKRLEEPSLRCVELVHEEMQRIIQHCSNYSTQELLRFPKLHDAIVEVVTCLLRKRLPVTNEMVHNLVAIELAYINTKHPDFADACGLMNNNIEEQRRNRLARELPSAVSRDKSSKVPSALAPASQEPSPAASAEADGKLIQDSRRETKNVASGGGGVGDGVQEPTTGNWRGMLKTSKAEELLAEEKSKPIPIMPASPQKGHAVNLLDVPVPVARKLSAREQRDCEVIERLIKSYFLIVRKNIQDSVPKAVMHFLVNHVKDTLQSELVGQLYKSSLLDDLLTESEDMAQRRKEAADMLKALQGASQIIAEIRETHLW
UniProt Q07812: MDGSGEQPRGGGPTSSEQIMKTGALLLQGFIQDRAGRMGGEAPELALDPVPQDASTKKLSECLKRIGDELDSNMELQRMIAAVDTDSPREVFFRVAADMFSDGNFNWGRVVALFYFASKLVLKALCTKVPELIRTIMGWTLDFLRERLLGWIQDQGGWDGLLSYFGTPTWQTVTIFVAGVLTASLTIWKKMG

Assay [1] addresses Dynamin-related protein Drp1 (human (endogenous in Su-DHL4)) (UniProt O00429). Kind of assay: co-IP; untreated (resting) Su-DHL4 cells; proteins extracted with CelLytic M cell Lysis Reagent; 500 ug proteins; Dynabeads protein A coated with 5 ug rabbit anti-Bax (N-20) or rabbit anti-Drp1 (H-300); 1 hour at room temperature; Western blotting with mouse anti-Bax (2D2) or mouse anti-Drp1 (6Z-82). A general note: A western blot detects proteins with antibodies after separation by electrophoresis.

The target in assay [2] is Bax (human (endogenous in Su-DHL4)) (UniProt Q07812). The assay is described as above.
Assay [3] shares this target. Kind of assay: co-IP; Su-DHL4 cells treated with UV light for 5 min, incubated for 2 and 3 hours; proteins extracted with 1% CHAPS-containing buffer (10 mM Hepes, pH 7.4, 150 mM NaCl, 1 mM DTT); IP with anti-Bax 6A7 (active Bax); Western blotting with rabbit anti-Drp1 (H-300) and rabbit anti-Bax (N-20).

These are yes or no findings as the source states them, for the method shown. Binding seen in cells or lysates may run through a third protein. Some entries that bind do so weakly or less than the wild type.

In the case of Bax (from UniProt Q07812 1-192), in assay [1], the binding result is recorded as “binds”.
On to “Dynamin-related protein Drp1 (from UniProt O00429 1-736)”, for which the binding entry in assay [2] and in assay [3] was “binds” throughout.
